Laboratory results from PubChem BioAssay (EPA / NIEHS).
The inconclusive results got no clear call from the source; some entries with a clear call stand among them for comparison. Where the call is inconclusive, the potency comes from a doubtful curve fit. The source made the active and inactive calls. The calls were made as follows: active = hit-call score of the fitted dose curve at least 0.9, where 1 is the maximum; inconclusive = response in the unintended direction; inactive = score below 0.9.

Chains of the proteins cited; added tags and fusions are not shown. Lines headed by an entry give the natural chain unless they say otherwise; changes in a name come on top.
UniProt P23467: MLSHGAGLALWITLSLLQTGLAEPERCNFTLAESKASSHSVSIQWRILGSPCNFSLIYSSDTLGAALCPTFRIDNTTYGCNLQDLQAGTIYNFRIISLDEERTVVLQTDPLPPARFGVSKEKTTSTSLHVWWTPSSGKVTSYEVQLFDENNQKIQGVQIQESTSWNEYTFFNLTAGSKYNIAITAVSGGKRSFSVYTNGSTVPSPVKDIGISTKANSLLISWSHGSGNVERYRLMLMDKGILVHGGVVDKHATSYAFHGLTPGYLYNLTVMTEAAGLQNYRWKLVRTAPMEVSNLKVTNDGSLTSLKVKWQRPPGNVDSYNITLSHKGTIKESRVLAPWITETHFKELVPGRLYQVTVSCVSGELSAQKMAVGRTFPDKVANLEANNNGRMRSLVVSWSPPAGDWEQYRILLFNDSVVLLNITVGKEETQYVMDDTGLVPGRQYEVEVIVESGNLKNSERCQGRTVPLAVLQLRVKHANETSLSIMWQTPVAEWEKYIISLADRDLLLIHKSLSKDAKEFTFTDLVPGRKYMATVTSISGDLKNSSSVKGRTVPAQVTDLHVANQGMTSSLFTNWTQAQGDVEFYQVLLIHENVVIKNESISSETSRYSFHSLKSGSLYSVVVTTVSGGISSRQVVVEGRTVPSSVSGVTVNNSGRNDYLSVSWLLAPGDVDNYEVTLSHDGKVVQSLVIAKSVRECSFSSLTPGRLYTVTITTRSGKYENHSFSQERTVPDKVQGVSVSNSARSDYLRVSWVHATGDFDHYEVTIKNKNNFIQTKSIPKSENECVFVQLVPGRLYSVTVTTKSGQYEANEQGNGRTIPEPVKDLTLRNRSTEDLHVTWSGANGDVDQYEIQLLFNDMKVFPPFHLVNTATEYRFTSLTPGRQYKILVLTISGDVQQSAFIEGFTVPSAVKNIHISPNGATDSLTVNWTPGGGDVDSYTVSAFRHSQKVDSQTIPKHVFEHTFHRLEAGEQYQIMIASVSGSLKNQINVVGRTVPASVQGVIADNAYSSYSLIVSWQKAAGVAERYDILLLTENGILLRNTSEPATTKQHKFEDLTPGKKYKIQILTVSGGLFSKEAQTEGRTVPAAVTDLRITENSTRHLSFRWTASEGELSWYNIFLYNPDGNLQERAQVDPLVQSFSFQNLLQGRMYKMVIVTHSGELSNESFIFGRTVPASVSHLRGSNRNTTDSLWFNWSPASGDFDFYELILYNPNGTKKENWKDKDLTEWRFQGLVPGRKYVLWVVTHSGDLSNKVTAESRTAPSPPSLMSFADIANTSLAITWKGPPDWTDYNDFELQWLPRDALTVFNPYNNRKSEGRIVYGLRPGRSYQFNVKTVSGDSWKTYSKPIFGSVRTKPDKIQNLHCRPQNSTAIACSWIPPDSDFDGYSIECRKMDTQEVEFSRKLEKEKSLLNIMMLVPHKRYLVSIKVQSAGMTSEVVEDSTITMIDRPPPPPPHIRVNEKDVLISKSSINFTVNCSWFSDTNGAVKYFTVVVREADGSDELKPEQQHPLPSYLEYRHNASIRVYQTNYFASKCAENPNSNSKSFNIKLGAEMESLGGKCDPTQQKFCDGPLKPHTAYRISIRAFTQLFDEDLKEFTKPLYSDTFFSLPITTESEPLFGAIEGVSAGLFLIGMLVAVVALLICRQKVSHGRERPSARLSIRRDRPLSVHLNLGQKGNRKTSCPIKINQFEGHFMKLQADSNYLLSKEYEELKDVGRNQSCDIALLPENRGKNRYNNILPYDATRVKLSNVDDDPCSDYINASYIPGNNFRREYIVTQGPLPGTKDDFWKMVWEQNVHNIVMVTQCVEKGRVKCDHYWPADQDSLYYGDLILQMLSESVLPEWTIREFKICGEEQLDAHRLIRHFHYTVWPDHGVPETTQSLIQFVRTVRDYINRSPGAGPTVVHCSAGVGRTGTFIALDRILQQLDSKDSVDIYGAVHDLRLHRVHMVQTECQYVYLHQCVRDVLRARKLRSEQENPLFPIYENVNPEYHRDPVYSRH

biological target: human Protein Tyrosine Phosphatase Receptor Type B (PTPRB), PTPRB (gene 5787) (UniProt P23467); experiment: NVS_ENZ_hPTPRB: NovaScreen (NVS) Enzymatic Assay for human Protein Tyrosine Phosphatase Receptor Type B (PTPRB) (AID 2283211)
Method in brief: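 Recombinant human PTPRB with a fluorescent substrate, product separated by electrophoretic mobility shift; read 1 h after dosing. Primary screen in duplicate at 25 uM; actives then retested in concentration series; loss of signal versus DMSO.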

SMILES | AC50 | outcome
COc1cnc(OC)n2nc(NS(=O)(=O)c3c(OCC(F)F)cccc3C(F)(F)F)nc12 | inconclusive: 0.0749 µM | –
COc1nn(C(=O)NS(=O)(=O)c2ccccc2OC(F)(F)F)c(=O)n1C | active: 6.08 µM | –
Cc1[nH]c(=O)n(C(C)(C)C)c(=O)c1Cl | inconclusive: 0.0716 µM | –
CON(C)C(=O)Nc1ccc(Cl)c(Cl)c1 | inconclusive: 0.455 µM | –
C=CC1(C)OC(=O)N(c2cc(Cl)cc(Cl)c2)C1=O (stereo not drawn) | inconclusive: 25 µM | –
COc1ccc(C(c2ccc(OC)cc2)C(Cl)(Cl)Cl)cc1 | inconclusive: 25 µM | –
Nc1c(Cl)cc([N+](=O)[O-])cc1Cl | inconclusive: 25 µM | –
Clc1ccccc1-c1nnc(-c2ccccc2Cl)nn1 | inconclusive: 25 µM | –
COc1nc(C)nc(NC(=O)NS(=O)(=O)c2ccccc2Cl)n1 | inconclusive: 0.156 µM | inactive
CCC(=NOC/C=C/Cl)C1=C(O)CC(C2CCOCC2)CC1=O (stereo not drawn) | inconclusive: 25 µM | –
O=c1[nH]c(=O)[nH]c(=O)[nH]1 | – | inactive
O=C1c2ccccc2C(=O)C1C(=O)C(c1ccccc1)c1ccc(Cl)cc1 (stereo not drawn) | active: 14.7 µM | –

Entries of single compounds as entered above. Order of values: AC50 | outcome
CON(C)C(=O)Nc1ccc(Cl)c(Cl)c1 is listed as inconclusive: 0.455 µM | –
COc1nc(C)nc(NC(=O)NS(=O)(=O)c2ccccc2Cl)n1 is listed as inconclusive: 0.156 µM | inactive
